Measured values published in PubChem BioAssay AID256 (DTP/NCI, 2004).
The list does not hold the whole screen: it gathers tests that were run many times, whatever their T/C, doses with no T/C, and many T/C values between a quarter and a half above the control. Further doses and runs are listed elsewhere. T/C gives the treated animals as a percentage of the vehicle group. Some doses have a count of surviving animals in place of a T/C: the source files T/C as zero there, which appears to mark a toxic dose or a test without result, not a measured value. Some survivor counts are full or nearly so, which does not show that the dose was tolerated: survival well below the control is almost never listed, so the zero probably covers shortened survival too. Survivors were counted at the toxicity check, usually on the fifth day, unless a day is given; later deaths do not show. Schedules are NCI's codes, read here as Q, the interval in days (D) or hours (H), X, the number of doses. Where survival is the endpoint, this PubChem deposit counts one and a half times the control or more as active, and values a quarter to a half above the control carry no call in these data; other NCI protocols may use other cut-offs.

Test system: CD2F1 mice, L1210 leukemia ip, survival T/C
Test: NCI In Vivo Anticancer Drug Screen. Data for tumor model L1210 Leukemia (intraperitoneal) in CD2F1 (CDF1) mice
Conditions: higher T/C = longer survival
Method in brief: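 Vehicle-treated tumor-bearing mice served as controls (C) for compound-treated mice (T). Reported figure is T divided by C.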

[1] = T/C endpoint: mean survival time, dose: 25.0 mg/kg/injection, schedule: Q04DX003 (ip), vehicle: saline with Tween-80
[2] = T/C endpoint: mean survival time, dose: 25.0 mg/kg/injection, schedule: Q01DX009 (ip), vehicle: saline with Tween-80
[3] = T/C endpoint: mean survival time, dose: 400.0 mg/kg/injection, schedule: Q01DX001 (ip), vehicle: saline
[4] = T/C endpoint: mean survival time, dose: 200.0 mg/kg/injection, schedule: Q04DX003 (ip), vehicle: saline with Tween-80
[5] = T/C endpoint: mean survival time, dose: 400.0 mg/kg/injection, schedule: Q04DX003 (ip), vehicle: saline with Tween-80
[6] = T/C endpoint: mean survival time, dose: 100.0 mg/kg/injection, schedule: Q04DX003 (ip), vehicle: saline with Tween-80
[7] = T/C endpoint: mean survival time, dose: 200.0 mg/kg/injection, schedule: Q01DX001 (ip), vehicle: saline with Tween-80
[8] = T/C endpoint: mean survival time, dose: 400.0 mg/kg/injection, schedule: Q01DX001 (ip), vehicle: saline with Tween-80
[9] = T/C endpoint: mean survival time, dose: 200.0 mg/kg/injection, schedule: Q01DX001 (ip), vehicle: saline
[10] = T/C endpoint: mean survival time, dose: 200.0 mg/kg/injection, schedule: Q01DX009 (ip), vehicle: saline with Tween-80

Question: How did the survivor count (T/C endpoint: mean survival time, dose: 12.5 mg/kg/injection, schedule: Q04DX003 (ip), vehicle: saline with Tween-80) turn out when `CCCCC(CC)C(=O)[O][Sn]([CH2]CCC)([CH2]CCC)[O]C(=O)C(CC)CCCC` (stereo not drawn) was run?
Answer: 1 of 6

Question: What about the survivor count [1] of the same compound?
Answer: 0 of 6

Question: For `Oc1ccc(Nc2c3ccccc3nc3c2ccc2ccccc23)cc1CN(CCCl)CCCl`, which T/C (T/C endpoint: mean survival time, dose: 1.56 mg/kg/injection, schedule: Q01DX009 (ip), vehicle: saline) is on record?
Answer: 136 % of control

Question: Which results are given for `C[CH2][Sn]([I])([CH2]C)[CH2]C`?
Answer: survivor count (T/C endpoint: mean survival time, dose: 12.5 mg/kg/injection, schedule: Q01DX009 (ip), vehicle: saline with Tween-80): 1 of 6; survivor count [2]: 0 of 6; survivor count (T/C endpoint: mean survival time, dose: 25.0 mg/kg/injection, schedule: Q04DX002 (ip), vehicle: saline with Tween-80): 0 of 3; survivor count (T/C endpoint: mean survival time, dose: 50.0 mg/kg/injection, schedule: Q04DX002 (ip), vehicle: saline with Tween-80): 0 of 3; survivor count (T/C endpoint: mean survival time, dose: 100.0 mg/kg/injection, schedule: Q04DX002 (ip), vehicle: saline with Tween-80): 0 of 3

Question: Which results are given for `CN1CCCN(C)C1c1ccccc1`?
Answer: survivor count (T/C endpoint: mean survival time, dose: 200.0 mg/kg/injection, schedule: Q04DX003 (ip), vehicle: saline): 1 of 6; survivor count (T/C endpoint: mean survival time, dose: 400.0 mg/kg/injection, schedule: Q04DX003 (ip), vehicle: saline): 0 of 6

Question: Which survivor count (T/C endpoint: mean survival time, dose: 75.0 mg/kg/injection, schedule: Q01DX001 (ip), vehicle: saline) does the source give for `CC(=O)NC1C=CC(=O)O1` (stereo not drawn) here?
Answer: 0 of 6

Question: Which results are given for `Nc1nc(=S)c2[nH]c(N=Nc3ccc(S(N)(=O)=O)cc3)nc2[nH]1`?
Answer: survivor count (T/C endpoint: mean survival time, dose: 100.0 mg/kg/injection, schedule: Q04DX003 (ip), vehicle: Klucel (hydroxypropylcellulose) (HPC)): 0 of 6; survivor count (T/C endpoint: mean survival time, dose: 200.0 mg/kg/injection, schedule: Q04DX003 (ip), vehicle: Klucel (hydroxypropylcellulose) (HPC)): 0 of 6

Question: With `CC(C)N(CC(=O)O)CC(=O)O` as the compound, how does the survivor count [3] read?
Answer: 2 of 4

Question: How did the survivor count [4] turn out when `Cc1ccc(C(=O)NN)cc1` was run?
Answer: 0 of 6

Question: What about the survivor count [5] of the same compound?
Answer: 0 of 6

Question: For `CCCOC(=O)OCCC`, which survivor count [6] is on record?
Answer: 3 of 6

Question: For `C[NH-].C[NH-].[Br][Pt][Br].[CH3-].[CH3-]`, which survivor count [1] is on record?
Answer: 1 of 3

Question: What about the survivor count (T/C endpoint: mean survival time, dose: 50.0 mg/kg/injection, schedule: Q04DX003 (ip), vehicle: saline with Tween-80) of the same compound?
Answer: 0 of 3

Question: What about the survivor count [6] of the same compound?
Answer: 0 of 3

Question: And the survivor count [4]?
Answer: 0 of 3

Question: What about the survivor count [5] of the same compound?
Answer: 0 of 3

Question: With `O=C(/C=C/C(=O)c1ccccc1)c1ccccc1` as the compound, how does the survivor count (T/C endpoint: mean survival time, dose: 25.0 mg/kg/injection, schedule: Q01DX001 (ip), vehicle: saline with Tween-80) read?
Answer: 3 of 3

Question: And the survivor count (T/C endpoint: mean survival time, dose: 100.0 mg/kg/injection, schedule: Q01DX001 (ip), vehicle: saline with Tween-80)?
Answer: 1 of 3

Question: What about the survivor count [7] of the same compound?
Answer: 0 of 3

Question: And the survivor count [8]?
Answer: 0 of 3

Question: `C(=C\c1cc[n+](CCc2ccccc2)cc1)/c1ccccc1` was tested. Which survivor count [6] did it give?
Answer: 0 of 6

Question: What about the survivor count [4] of the same compound?
Answer: 0 of 6

Question: What about the survivor count [5] of the same compound?
Answer: 0 of 6

Question: Which survivor count [8] does the source give for `NS(=O)(=O)c1ccc(Cl)c2ccccc12` here?
Answer: 3 of 6

Question: For `CNP1(=O)OC(c2ccccc2)=CCN1CCCl` (stereo not drawn), which survivor count (T/C endpoint: median survival time, dose: 500.0 mg/kg/injection, schedule: Q01DX001 (ip), vehicle: distilled water + Tween-80) is on record?
Answer: 2 of 6

Question: For `COc1cccc2c1C(=O)c1c(O)c3c(c(O)c1C2=O)C[C@@](O)(C(=O)CN1CCN(C)CC1)C[C@@H]3OC1CC(N)C(O)C(C)O1` (stereo partly drawn), which survivor count (T/C endpoint: mean survival time, dose: 3.13 mg/kg/injection, schedule: Q04DX003 (ip), vehicle: water) is on record?
Answer: 6 of 6

Question: Which results are given for `CC(=O)[CH-]C(C)=O.CC(=O)[CH-]C(C)=O.CC(N)CN.[Ni+2]`?
Answer: survivor count (T/C endpoint: mean survival time, dose: 100.0 mg/kg/injection, schedule: Q01DX009 (ip), vehicle: other): 6 of 6; survivor count (T/C endpoint: mean survival time, dose: 200.0 mg/kg/injection, schedule: Q01DX009 (ip), vehicle: other): 2 of 6

Question: Which survivor count [4] does the source give for `C[N+](C)(CCO)Cc1ccccc1` here?
Answer: 4 of 6

Question: And the survivor count [5]?
Answer: 0 of 6

Question: Which survivor count [8] does the source give for `COc1ccccc1N=Nc1c(O)n(-c2ccccc2OC)c(=S)n(-c2ccc(Cl)cc2)c1=O` here?
Answer: 0 of 6

Question: How did the survivor count [3] turn out when `NCC1CC2C=CC1C2` (stereo not drawn) was run?
Answer: 0 of 6

Question: Which results are given for `CN(C)C=NCCc1ccccc1`?
Answer: survivor count (T/C endpoint: mean survival time, dose: 100.0 mg/kg/injection, schedule: Q01DX001 (ip), vehicle: saline): 1 of 4; survivor count [9]: 0 of 4; survivor count [3]: 0 of 4

Question: Which survivor count [7] does the source give for `CCC1C(C)CNC1C` (stereo not drawn) here?
Answer: 0 of 6

Question: What about the survivor count [8] of the same compound?
Answer: 0 of 6

Question: Which results are given for `COc1cc(NS(C)(=O)=O)ccc1Nc1c2ccc(Cl)cc2nc2c(OC)cccc12`?
Answer: survivor count [2]: 5 of 6; survivor count (T/C endpoint: mean survival time, dose: 50.0 mg/kg/injection, schedule: Q01DX009 (ip), vehicle: saline with Tween-80): 5 of 6; T/C (T/C endpoint: mean survival time, dose: 400.0 mg/kg/injection, schedule: Q04DX003 (ip), vehicle: saline sonified): 148 % of control

Question: `C(=Nc1ccc(-c2ccccc2)cc1)c1ccccc1` was tested. Which survivor count [10] did it give?
Answer: 5 of 6

Question: How did the survivor count (T/C endpoint: mean survival time, dose: 200.0 mg/kg/injection, schedule: Q01DX009 (ip), vehicle: saline sonified) turn out when `CCCN(CCC)CC(=O)Nc1c(Cl)cccc1Cl` was run?
Answer: 3 of 6

Question: And the survivor count [5]?
Answer: 6 of 6

Question: For `C1CCC2NN=NC2C1` (stereo not drawn), which survivor count [8] is on record?
Answer: 2 of 6

Question: With `COc1cc(OC)c(NC(=O)Oc2c(Cl)cccc2Cl)cc1Cl` as the compound, how does the survivor count [10] read?
Answer: 2 of 3

Question: With `COc1ccc(NC(=S)NN)cc1` as the compound, how does the survivor count [4] read?
Answer: 6 of 6

Question: How did the survivor count [6] turn out when `CC1(C)N=C(N)N=C(N)N1c1ccc(OCCCc2ccccc2)c(N)c1` was run?
Answer: 5 of 6

Question: And the survivor count [4]?
Answer: 0 of 6

Question: What about the survivor count [5] of the same compound?
Answer: 0 of 6

Question: `CN=C1N[N+]2=CCCCC2S1` (stereo not drawn) was tested. Which survivor count (T/C endpoint: mean survival time, dose: 100.0 mg/kg/injection, schedule: Q04DX003 (ip), vehicle: saline) did it give?
Answer: 1 of 3

Question: `O=[N+]([O-])c1ccc(N/N=C/C(Br)(Br)Br)c([N+](=O)[O-])c1` was tested. Which survivor count [6] did it give?
Answer: 1 of 6

Question: Which survivor count [4] does the source give for `ClCc1ccc(CCl)c(Cl)c1Cl` here?
Answer: 5 of 6

Question: What about the survivor count [5] of the same compound?
Answer: 2 of 6

Question: Which results are given for `CCOC(=O)N[C@H]1CCc2cc(OC)c(OC)c(OC)c2-c2ccc(SC)c(=O)cc21`?
Answer: survivor count (T/C endpoint: mean survival time, dose: 3.0 mg/kg/injection, schedule: Q01DX009 (ip), vehicle: other): 4 of 6; survivor count (T/C endpoint: mean survival time, dose: 6.0 mg/kg/injection, schedule: Q01DX009 (ip), vehicle: other): 2 of 6

Question: `C=CN(C)OC` was tested. Which survivor count [9] did it give?
Answer: 1 of 6

Question: What about the survivor count [3] of the same compound?
Answer: 0 of 6
